From PubChem BioAssay record AID504865 (NCATS, 2011).

By UniProt entry, the sequences of proteins in these tests, tags left out.
UniProt O94782, whole entry, looked up, target on record: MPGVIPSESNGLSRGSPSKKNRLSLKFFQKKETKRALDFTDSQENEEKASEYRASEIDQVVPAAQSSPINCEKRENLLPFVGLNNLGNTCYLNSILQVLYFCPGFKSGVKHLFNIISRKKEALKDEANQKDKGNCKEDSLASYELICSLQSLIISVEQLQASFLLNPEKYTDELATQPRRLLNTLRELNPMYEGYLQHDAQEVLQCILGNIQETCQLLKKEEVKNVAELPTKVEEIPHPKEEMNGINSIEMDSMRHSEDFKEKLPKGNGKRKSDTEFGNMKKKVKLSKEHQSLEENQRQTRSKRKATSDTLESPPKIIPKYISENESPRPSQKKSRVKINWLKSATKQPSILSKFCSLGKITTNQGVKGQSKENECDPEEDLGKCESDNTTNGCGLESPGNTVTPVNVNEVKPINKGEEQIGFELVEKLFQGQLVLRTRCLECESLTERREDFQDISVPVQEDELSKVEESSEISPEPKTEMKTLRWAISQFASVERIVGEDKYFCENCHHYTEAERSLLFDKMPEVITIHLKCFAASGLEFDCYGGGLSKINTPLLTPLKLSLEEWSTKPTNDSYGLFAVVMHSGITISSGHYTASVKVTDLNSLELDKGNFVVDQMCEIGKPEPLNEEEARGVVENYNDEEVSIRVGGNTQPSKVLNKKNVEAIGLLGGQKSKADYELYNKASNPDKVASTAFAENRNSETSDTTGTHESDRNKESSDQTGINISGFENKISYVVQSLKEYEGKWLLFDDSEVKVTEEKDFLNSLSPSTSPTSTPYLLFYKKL

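Fluorescent signal from cleaved Ub-rhodamine measures how much the isolated USP1/UAF1 deubiquitinase is inhibited, recorded over roughly six minutes.
Compounds were titrated over 13 concentrations from about 0.0037 µM up to roughly 110 µM, the top dose varying by compound.
The value is the fitted AC50 from the dose-response series, and a lower number means a more potent inhibitor.
Calls come from curve class and fitted log AC50: scores 40-100 are active, 1-39 inconclusive (as here, weak, partial or poorly fitted curves), and 0 inactive.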

Values are in µM.
All entries here are filed as inconclusive.
Only part of the assay is shown, chiefly results filed as inconclusive.
Potencies fitted to partial, single-point or poorly fitting curves are rough.
Some entries filed as inconclusive have a full curve.
Activity scores are not listed here.

| # | SMILES | potency (µM) | remark |
|---|---|---|---|
| 1 | `CCOC(=O)C1=C(C)NC(c2ccccc2)=C(C(=O)OCc2ccc([N+](=O)[O-])cc2)[C@@H]1C#Cc1ccccc1` | 35.48 | inhibitor, partial curve, poor fit |
| 2 | `CC(C)[C@H](CO)Nc1nc(Nc2cccc(Cl)c2)c2ncn(C(C)C)c2n1` | 50.12 | inhibitor, partial curve |
| 3 | `Cc1nc2ccc(NC(=O)Nc3ccnc4cccnc34)cc2o1` | 10 | inhibitor, full curve |
| 4 | `CC1=CCc2c(cc3oc(C)cc(=O)c3c2O)OC1` | 100 | inhibitor, partial curve, poor fit |
| 5 | `C[C@]12CCC3c4ccc(O)cc4CCC3C1CCC2OC(=O)CCC1CCCC1` (stereo partly specified) | 35.48 | inhibitor, partial curve |
| 6 | `COc1ccc2c(c1)OCC(Cc1ccc(O)c(OC)c1)C2=O` (stereo unspecified) | 44.67 | inhibitor, partial curve, poor fit |
| 7 | `CC(C)=CCC/C(C)=C/COc1ccc2ccc(=O)oc2c1` | 56.23 | inhibitor, partial curve, poor fit |
| 8 | `C[C@@H](CC(=O)O)[C@@H](N)C(=O)O` | 17.78 | inhibitor, partial curve, poor fit |
| 9 | `C#C[C@]1(O)CC[C@@H]2[C@H]3CCC4=CCCC[C@@H]4[C@@H]3CC[C@@]21C` | 7.943 | inhibitor, full curve |
| 10 | `O=c1c(-c2ccccc2)nc2cnc(Oc3ccccc3)nc2n1C[C@H]1CCCO1` | 17.78 | inhibitor, partial curve, poor fit |
| 11 | `N#Cc1cc([N+](=O)[O-])c2sc(C(N)=O)[n+]([O-])c2c1` | 70.79 | inhibitor, partial curve, poor fit |
| 12 | `Cc1c2ccncc2c(C)c2c1[nH]c1ccccc12` | 79.43 | inhibitor, single point |
| 13 | `CC(=O)Nc1ccc(OC(=O)c2ccccc2OC(C)=O)cc1` | 89.13 | inhibitor, partial curve, poor fit |
| 14 | `CC[C@H](C)[C@@H]1O[C@]2(CC[C@@H]1C)C[C@H]1C[C@H](CC=C(C)[C@@H](O[C@@H]3C[C@H](OC)[C@H](O[C@@H]4C[C@H](OC)[C@H](O)[C@H](C)O4)[C@H](C)O3)[C@@H](C)C=CC=C3CO[C@@H]4[C@@H](O)C(C)=C[C@@H](C(=O)O1)[C@]34O)O2` | 28.18 | inhibitor, partial curve |
| 15 | `COc1ccccc1CNc1ccnc(-c2ccccc2Cl)n1` | 39.81 | inhibitor, partial curve, poor fit |
| 16 | `C[C@@H]1COc2c(N3CCN(C)CC3)c(F)cc3c(=O)c(C(=O)O)cn1c23` | 39.81 | inhibitor, single point |
| 17 | `CC(=O)Nc1ccc(NC(=S)NC(=O)c2ccc(C(C)(C)C)cc2)cc1` | 35.48 | inhibitor, partial curve |
| 18 | `C=C1/C(=C\C=C2/CCC[C@]3(C)[C@@H]([C@H](C)/C=C/[C@@H](O)C4CC4)CC[C@@H]23)C[C@@H](O)C[C@@H]1O` | 63.1 | inhibitor, partial curve, poor fit |
| 19 | `c1ccc(C(NCc2cccnc2)(c2ccccc2)c2ccccc2)cc1` | 25.12 | inhibitor, partial curve, poor fit |
| 20 | `CN1CCN(c2nc(-c3ccc(N(C)C)cc3)nc3ccccc23)CC1` | 56.23 | inhibitor, partial curve, poor fit |
| 21 | `Cc1nc2sccn2c(=O)c1CCN1CCC(=C(c2ccccc2)c2ccc(F)cc2)CC1` | 70.79 | inhibitor, partial curve, poor fit |
| 22 | `CCc1c(C)[nH]c2c1C(=O)[C@H](CN1CCOCC1)CC2` | 39.81 | inhibitor, partial curve, poor fit |
| 23 | `CCc1cc(Cl)c(OC)c(C(=O)NC[C@@H]2CCCN2CC)c1O` | 35.48 | inhibitor, partial curve, poor fit |
| 24 | `CNCCc1ccccn1` | 39.81 | inhibitor, partial curve, poor fit |
| 25 | `O=[N+]([O-])c1ccc(F)c([N+](=O)[O-])c1` | 25.12 | inhibitor, partial curve, poor fit |
| 26 | `CCCCCCCCCCCCC[N+](C)(C)Cc1ccccc1` | 56.23 | inhibitor, partial curve, poor fit |
| 27 | `CC(C)CCCC(C)C1CCC2C3C(=O)C=C4CC(O)CC[C@@]4(C)C3CC[C@@]12C` (stereo partly specified) | 10 | inhibitor, partial curve, poor fit |

2 of the entries, repeated:

SMILES	potency (µM)	remark
CC(C)CCCC(C)C1CCC2C3C(=O)C=C4CC(O)CC[C@@]4(C)C3CC[C@@]12C (stereo partly specified)	10	inhibitor, partial curve, poor fit
N#Cc1cc([N+](=O)[O-])c2sc(C(N)=O)[n+]([O-])c2c1	70.79	inhibitor, partial curve, poor fit